For four substances, binding results are on record in article PMC6599304.

By UniProt entry, the sequences of proteins in these tests, tags left out.
UniProt Q8BPN8: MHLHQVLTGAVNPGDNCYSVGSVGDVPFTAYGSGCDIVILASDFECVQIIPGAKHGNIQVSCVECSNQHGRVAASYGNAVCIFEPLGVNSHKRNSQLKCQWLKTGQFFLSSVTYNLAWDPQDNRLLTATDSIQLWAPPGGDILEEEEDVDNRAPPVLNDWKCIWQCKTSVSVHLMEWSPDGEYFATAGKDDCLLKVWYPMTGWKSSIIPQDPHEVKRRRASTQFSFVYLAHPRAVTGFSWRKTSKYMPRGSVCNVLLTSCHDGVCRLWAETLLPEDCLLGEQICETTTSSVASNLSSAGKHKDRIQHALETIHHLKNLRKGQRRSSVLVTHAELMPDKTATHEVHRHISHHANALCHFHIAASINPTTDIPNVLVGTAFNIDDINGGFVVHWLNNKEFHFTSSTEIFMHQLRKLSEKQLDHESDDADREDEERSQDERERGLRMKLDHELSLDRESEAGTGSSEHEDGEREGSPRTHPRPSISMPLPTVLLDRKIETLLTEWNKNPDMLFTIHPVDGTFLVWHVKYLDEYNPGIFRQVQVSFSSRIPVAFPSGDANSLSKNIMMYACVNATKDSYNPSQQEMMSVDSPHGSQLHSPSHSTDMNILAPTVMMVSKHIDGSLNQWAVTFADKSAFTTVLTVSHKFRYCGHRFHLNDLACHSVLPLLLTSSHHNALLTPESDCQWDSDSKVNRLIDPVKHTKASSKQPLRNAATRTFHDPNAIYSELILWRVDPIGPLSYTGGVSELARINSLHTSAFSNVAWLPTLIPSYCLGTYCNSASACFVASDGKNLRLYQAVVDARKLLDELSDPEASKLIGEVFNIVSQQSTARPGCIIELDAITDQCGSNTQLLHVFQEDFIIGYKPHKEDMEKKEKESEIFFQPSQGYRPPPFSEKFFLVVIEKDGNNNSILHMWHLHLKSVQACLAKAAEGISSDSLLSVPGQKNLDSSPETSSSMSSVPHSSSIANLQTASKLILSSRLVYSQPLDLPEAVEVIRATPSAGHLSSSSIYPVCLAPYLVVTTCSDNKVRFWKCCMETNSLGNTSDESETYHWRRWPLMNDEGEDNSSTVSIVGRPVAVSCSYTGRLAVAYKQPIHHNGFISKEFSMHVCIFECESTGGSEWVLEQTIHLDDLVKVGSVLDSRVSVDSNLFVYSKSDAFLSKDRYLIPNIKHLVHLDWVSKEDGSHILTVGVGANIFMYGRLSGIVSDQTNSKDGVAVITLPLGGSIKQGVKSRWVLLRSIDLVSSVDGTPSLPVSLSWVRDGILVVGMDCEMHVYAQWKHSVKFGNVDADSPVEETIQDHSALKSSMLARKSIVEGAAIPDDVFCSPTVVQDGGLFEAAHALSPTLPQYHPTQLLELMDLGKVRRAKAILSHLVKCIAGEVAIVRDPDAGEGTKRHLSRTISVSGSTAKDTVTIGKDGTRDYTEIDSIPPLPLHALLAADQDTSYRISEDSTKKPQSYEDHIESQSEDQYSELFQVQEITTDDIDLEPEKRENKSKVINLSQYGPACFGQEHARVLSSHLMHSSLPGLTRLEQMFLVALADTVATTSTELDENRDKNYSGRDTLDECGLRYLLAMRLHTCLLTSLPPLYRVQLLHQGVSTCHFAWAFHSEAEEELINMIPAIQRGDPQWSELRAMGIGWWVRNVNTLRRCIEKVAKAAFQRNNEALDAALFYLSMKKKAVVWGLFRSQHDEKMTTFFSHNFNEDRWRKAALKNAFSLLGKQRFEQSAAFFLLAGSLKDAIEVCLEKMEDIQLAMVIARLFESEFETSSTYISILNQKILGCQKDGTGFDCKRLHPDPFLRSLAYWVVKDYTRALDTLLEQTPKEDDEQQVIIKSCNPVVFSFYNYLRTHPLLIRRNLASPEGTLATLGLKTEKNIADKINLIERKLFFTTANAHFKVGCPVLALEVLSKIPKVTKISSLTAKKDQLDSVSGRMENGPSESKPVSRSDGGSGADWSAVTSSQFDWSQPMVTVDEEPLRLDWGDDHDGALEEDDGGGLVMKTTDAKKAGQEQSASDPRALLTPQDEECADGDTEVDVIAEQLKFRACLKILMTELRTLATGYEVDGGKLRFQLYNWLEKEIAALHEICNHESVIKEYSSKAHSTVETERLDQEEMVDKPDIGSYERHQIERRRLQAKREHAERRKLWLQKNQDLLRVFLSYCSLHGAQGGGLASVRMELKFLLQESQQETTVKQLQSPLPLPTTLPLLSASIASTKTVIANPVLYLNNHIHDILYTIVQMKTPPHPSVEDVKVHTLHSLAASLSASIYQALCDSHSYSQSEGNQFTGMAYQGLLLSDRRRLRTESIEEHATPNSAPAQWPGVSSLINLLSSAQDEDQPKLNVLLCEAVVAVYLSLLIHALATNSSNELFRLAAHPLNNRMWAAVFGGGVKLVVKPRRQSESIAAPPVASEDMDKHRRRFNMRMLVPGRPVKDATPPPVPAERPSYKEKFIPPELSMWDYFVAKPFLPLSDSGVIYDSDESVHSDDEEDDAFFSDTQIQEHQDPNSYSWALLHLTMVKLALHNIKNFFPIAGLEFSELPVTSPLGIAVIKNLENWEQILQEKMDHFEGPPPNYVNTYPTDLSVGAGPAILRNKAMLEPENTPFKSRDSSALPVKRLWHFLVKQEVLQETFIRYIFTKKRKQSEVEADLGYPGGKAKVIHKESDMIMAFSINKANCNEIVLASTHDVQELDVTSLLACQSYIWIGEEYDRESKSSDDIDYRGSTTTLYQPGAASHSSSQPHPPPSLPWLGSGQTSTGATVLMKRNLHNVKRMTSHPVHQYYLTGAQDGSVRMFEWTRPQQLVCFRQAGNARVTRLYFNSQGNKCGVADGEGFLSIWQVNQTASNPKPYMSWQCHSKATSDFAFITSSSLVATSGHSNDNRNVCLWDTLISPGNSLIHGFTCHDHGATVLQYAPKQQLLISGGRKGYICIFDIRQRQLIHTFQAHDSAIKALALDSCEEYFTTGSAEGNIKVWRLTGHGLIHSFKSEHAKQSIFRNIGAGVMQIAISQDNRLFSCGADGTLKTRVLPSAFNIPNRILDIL
UniProt Q920I9: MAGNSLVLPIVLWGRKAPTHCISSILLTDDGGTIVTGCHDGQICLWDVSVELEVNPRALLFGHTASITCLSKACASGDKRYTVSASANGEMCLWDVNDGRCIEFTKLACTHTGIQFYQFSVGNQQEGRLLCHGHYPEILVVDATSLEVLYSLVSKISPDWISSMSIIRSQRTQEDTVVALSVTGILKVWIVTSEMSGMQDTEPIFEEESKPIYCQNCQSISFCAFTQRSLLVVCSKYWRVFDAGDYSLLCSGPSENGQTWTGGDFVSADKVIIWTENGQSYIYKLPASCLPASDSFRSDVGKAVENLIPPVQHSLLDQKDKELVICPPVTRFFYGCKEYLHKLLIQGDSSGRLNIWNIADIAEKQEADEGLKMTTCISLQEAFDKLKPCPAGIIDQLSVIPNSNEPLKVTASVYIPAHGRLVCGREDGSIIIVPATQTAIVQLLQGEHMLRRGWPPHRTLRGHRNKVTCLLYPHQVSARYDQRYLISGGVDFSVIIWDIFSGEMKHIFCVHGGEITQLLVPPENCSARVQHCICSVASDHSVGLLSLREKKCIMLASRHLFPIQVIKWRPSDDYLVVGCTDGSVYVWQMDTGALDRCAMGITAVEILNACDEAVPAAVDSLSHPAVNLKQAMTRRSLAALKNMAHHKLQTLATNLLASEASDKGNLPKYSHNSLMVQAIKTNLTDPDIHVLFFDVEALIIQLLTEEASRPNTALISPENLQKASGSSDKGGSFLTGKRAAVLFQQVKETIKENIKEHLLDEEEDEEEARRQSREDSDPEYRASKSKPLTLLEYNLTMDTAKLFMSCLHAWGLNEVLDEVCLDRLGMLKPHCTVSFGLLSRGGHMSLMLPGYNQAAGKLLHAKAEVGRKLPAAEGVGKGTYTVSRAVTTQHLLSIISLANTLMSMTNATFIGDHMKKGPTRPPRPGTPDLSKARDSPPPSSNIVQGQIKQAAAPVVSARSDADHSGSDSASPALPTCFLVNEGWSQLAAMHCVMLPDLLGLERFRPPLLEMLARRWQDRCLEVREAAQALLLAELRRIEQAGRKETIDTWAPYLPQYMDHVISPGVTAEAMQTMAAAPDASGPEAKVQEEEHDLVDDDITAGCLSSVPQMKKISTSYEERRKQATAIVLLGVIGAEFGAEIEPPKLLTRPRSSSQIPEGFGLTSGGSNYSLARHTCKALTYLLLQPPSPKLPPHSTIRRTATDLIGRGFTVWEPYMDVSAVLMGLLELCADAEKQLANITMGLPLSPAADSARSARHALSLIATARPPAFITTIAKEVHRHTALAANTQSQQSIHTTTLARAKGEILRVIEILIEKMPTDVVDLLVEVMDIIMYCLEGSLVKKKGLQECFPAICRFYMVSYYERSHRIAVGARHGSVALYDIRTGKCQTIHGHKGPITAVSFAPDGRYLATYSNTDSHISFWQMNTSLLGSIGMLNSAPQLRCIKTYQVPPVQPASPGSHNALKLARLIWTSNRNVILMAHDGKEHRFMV
UniProt Q9Y4E6: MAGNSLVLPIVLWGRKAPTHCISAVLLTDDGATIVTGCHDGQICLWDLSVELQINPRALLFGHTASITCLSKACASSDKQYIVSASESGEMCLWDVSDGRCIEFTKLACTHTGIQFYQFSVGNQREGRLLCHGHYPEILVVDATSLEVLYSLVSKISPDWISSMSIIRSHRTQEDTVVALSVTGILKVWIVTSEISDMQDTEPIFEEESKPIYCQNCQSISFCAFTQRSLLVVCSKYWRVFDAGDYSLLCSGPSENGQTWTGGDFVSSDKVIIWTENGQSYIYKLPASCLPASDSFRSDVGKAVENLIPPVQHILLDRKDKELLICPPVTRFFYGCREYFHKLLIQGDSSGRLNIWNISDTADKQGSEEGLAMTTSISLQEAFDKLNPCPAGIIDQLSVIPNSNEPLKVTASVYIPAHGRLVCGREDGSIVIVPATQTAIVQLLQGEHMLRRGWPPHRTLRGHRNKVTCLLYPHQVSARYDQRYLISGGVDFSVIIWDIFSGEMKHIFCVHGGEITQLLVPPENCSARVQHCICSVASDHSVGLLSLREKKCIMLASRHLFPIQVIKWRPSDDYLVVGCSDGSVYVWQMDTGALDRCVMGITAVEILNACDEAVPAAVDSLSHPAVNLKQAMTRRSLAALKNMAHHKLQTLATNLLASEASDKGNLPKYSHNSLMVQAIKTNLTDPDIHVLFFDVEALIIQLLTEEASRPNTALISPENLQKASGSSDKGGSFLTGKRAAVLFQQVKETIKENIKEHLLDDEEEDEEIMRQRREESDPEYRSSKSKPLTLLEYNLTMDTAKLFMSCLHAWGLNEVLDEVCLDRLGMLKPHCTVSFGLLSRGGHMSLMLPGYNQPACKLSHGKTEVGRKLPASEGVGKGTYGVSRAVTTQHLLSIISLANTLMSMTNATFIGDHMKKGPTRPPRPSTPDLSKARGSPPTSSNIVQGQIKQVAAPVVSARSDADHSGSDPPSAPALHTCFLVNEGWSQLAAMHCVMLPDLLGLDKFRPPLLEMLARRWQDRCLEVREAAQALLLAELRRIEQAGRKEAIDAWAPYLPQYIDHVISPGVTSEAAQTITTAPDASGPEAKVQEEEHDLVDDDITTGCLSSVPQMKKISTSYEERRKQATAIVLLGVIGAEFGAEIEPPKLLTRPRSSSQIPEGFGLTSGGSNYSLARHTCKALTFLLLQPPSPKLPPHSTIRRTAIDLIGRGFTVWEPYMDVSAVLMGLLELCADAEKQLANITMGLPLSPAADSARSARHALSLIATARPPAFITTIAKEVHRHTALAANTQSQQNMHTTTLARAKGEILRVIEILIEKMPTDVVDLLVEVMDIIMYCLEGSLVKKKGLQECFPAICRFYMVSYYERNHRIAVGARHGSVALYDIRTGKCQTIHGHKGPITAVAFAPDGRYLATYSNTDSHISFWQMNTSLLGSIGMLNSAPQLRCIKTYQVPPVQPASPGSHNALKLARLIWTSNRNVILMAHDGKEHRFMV

These are yes or no findings as the source states them, for the method shown. Binding seen in cells or lysates may run through a third protein. Some results given as binding are weak or reduced against the parent protein; the word gives no strength.

Assay [1] addresses Cav2.2 α1 subunit (rat, recombinant in tsA-201 cells) (rat) (UniProt Q02294). The assay is described as follows: co-IP; lysate of tsA-201 cells transfected with Cav2.2α1 and RB-3β only (1% Triton X-100 lysis buffer); precipitated with anti-Cav2.2, anti-RB-3β or irrelevant antibody; Western blot with anti-RB-3β. On the technique in general: In western blotting, separated proteins are transferred to a membrane and probed.

Assay [2] deals with Rabconnectin-3α (endogenous, brain) (mouse (endogenous in mouse brain; the methods say rat brain)) (UniProt Q8BPN8). Description: co-IP; mouse brain homogenate (methods: rat brain proteins lysed in RIPA buffer); 1 mg of proteins with 3 ug of specific or irrelevant (isotype control) antibody; Western blot.
Assay [3] addresses Cav2.1 calcium channel (endogenous, brain) (mouse (endogenous in mouse brain; the methods say rat brain)) (UniProt P97445). The description is as above.
Assay [4] has as its target Cav2.2 calcium channel (endogenous, brain) (mouse (endogenous in mouse brain; the methods say rat brain)) (UniProt O55017). The assay is described as above.
The target of assay [5] is Rabconnectin-3β (endogenous, brain) (mouse (endogenous in mouse brain; the methods say rat brain)) (UniProt Q920I9). The description is as above.

Take “Rabconnectin-3β (human WDR7, recombinant in tsA-201 cells) (from UniProt Q9Y4E6 1-1490)”: the binding entry in assay [1] is reported as “binds”.

For “Cav2.2 calcium channel (endogenous, brain) (from UniProt O55017 1-2327)”, in assay [2], the binding result was “binds”.

With “Rabconnectin-3β (endogenous, brain) (from UniProt Q920I9 1-1489)”, the binding result in assay [3], in assay [4] and in assay [2] was “binds” each time.

For the substance “Rabconnectin-3α (endogenous, brain) (from UniProt Q8BPN8 1-3032)”, in assay [5], the binding entry was “binds”.
